Measurements from PubChem BioAssay AID445 (National Center for Advancing Translational Sciences (NCATS), 2006).
This is one part of the list. Further columns of the screen follow, without active or inactive calls. Most of these compounds were active or inconclusive in the main read-out, so they are no random draw. The note in brackets gives the kind of curve behind each potency; many fits are weak.

test: IkB Signaling; settings: ABC-DLBCL IkBa-CBG/CBR dual luciferase ratio (green luciferase fused to IkBa over red control in OCI-Ly3 lymphoma cells), 4 h; measured here: control luc red channel unless noted
Outline: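 In this assay, an IκBα–CBG68 fusion accumulates when IKK-driven degradation is blocked; native CBR normalizes for cell number. OCI-Ly3 cells were treated 4 h with compound and doxycycline, then green and red light read after Chroma-Glo addition.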

Row | SMILES | AC50
1 | CC(C)C(=O)NCC(c1ccc2c(c1)OCO2)N1CCN(c2ccccc2)CC1 (configuration not stated) | 1 µM [rising, full curve, poor fit]
2 | CCn1c(C(=O)N2CCCC(C(=O)N3CCN(c4cc(C)ccc4C)CC3)C2)cc2sccc21 (configuration not stated) | 25.1 µM [falling, partial curve]
3 | Cc1ccc(CCNC(=O)CCS(=O)(=O)c2cc3c(cc2C)NC(=O)CO3)cc1 | 7.94 µM [falling, full curve]
4 | COc1ccc(C)cc1NS(=O)(=O)c1cc2c3c(c1)CC(=O)N3CCC2 | 2.51 µM [rising, partial curve]
5 | COc1ccc(-n2c(=O)c3ccccc3n(CC(=O)NCCc3ccc(OC)c(OC)c3)c2=O)cc1 | 0.158 µM [rising, full curve, poor fit]
6 | COc1cc2c(cc1OC)C(COc1cc(C)cc(C)c1)N(C(=O)COc1ccccc1)CC2 (configuration not stated) | 25.1 µM [falling, partial curve]
7 | Cc1ccc(NC(=O)C(=O)c2cc(C)n(-c3ccc(F)cc3)c2C)cc1C | 10 µM [falling, partial curve]
8 | CCOc1ccc(NC(=O)C2CCCN(S(=O)(=O)c3ccc4[nH]c(=O)ccc4c3)C2)cc1 (configuration not stated) | 0.2 µM [rising, full curve, poor fit]
9 | COc1cccc(-n2ccn(CC(=O)c3ccc(F)cc3)c(=O)c2=O)c1 | 10 µM [falling, partial curve]
10 | COc1ccccc1N1CCN(C(=O)CSc2nc3ccccc3nc2Cc2ccccc2)CC1 | 25.1 µM [falling, partial curve]
11 | Cc1ccc(CSC2=Nc3ccccc3C3=NC(CC(=O)NC4CCCCC4)C(=O)N23)cc1 (configuration not stated) | 0.398 µM [falling, full curve]
12 | COc1ccc(CNC(=O)c2cc(Nc3ccc(C)cc3C)nc3ccccc23)cc1 | 1 µM [falling, partial curve]
13 | CCCN(CCC)S(=O)(=O)c1ccc2c(c1)N(CC(=O)NC(C)c1ccccc1)C(=O)CS2 (configuration not stated) | 25.1 µM [falling, partial curve]
14 | CCN(c1cccc(C)c1)S(=O)(=O)c1nnc(NC(=O)c2ccccc2Cl)s1 | 7.94 µM [falling, partial curve]
15 | COc1ccccc1N1CCN(C(=O)c2cc(-c3ccc(F)cc3)on2)CC1 | 20 µM [falling, single point]
16 | CC(=O)c1ccc(N2C(=O)N(CC(=O)c3ccc(C)cc3)c3ccccc3S2(=O)=O)cc1 | 20 µM [rising, partial curve]
17 | CCOc1cc2c3c(c1)C1(C(=O)N3C(C)(C)C=C2C)C(C#N)=C(N)Oc2cc(O)ccc21 (configuration not stated) | 12.6 µM [falling, partial curve]
18 | COc1ccc(CCNC(=O)C(=O)NCC(c2ccc3c(c2)OCO3)N2CCOCC2)cc1OC (configuration not stated) | 0.158 µM [falling, full curve, poor fit]
19 | Cc1cccn2c(=O)c(C(=O)NCCc3ccccc3)c(O)nc12 | 25.1 µM [falling, single point]
20 | CC(=O)Nc1ccc(Oc2cc(C#N)c(C#N)cc2N2CCCCCC2)cc1 | 15.8 µM [falling, partial curve]
21 | CCOc1ccc(NC(=O)c2oc3ccccc3c2NC(=O)c2c(F)cccc2F)cc1 | 10 µM [falling, partial curve]

Pulled one by one from above (2):
Row | SMILES | AC50
13 | CCCN(CCC)S(=O)(=O)c1ccc2c(c1)N(CC(=O)NC(C)c1ccccc1)C(=O)CS2 (configuration not stated) | 25.1 µM [falling, partial curve]
8 | CCOc1ccc(NC(=O)C2CCCN(S(=O)(=O)c3ccc4[nH]c(=O)ccc4c3)C2)cc1 (configuration not stated) | 0.2 µM [rising, full curve, poor fit]

Later entries.

Row | SMILES | AC50
22 | CCOc1ccc2c(c1)NC(c1cccs1)=NC(c1ccc(F)cc1)=N2 | 39.8 µM [falling, single point]
23 | COc1ccc2occ(CC(=O)Nc3ccc(S(=O)(=O)Nc4nc(C)cc(C)n4)cc3)c2c1 | 7.94 µM [falling, partial curve]
24 | COc1ccc(C2C(C(=O)Nc3ccc(C)cc3C)=C(C)Nc3nc4ccccc4n32)c(OC)c1 (configuration not stated) | 25.1 µM [falling, single point]
25 | COC(=O)c1cc(NC(=O)Cn2nc(-c3ccc(C)c(C)c3)ccc2=O)cc(C(=O)OC)c1 | 20 µM [falling, single point]
26 | O=C(CN1C(=O)COc2ccc(S(=O)(=O)Nc3ccccc3)cc21)Nc1cccc(Cl)c1 | 10 µM [falling, partial curve]
27 | COC(=O)c1ccc(Cn2nnc3c(=O)[nH]c(C4CCCN(S(=O)(=O)c5cccc(Cl)c5)C4)nc32)cc1 (configuration not stated) | 31.6 µM [falling, single point]
28 | Cc1nc(SCN2C(=O)c3ccccc3C2=O)n[nH]1 | 25.1 µM [rising, partial curve]
29 | Cc1nn(-c2ccccc2)c2c1C1(C(=O)N(C)c3ccccc31)N(c1ccccc1)C(=O)N2 (configuration not stated) | 12.6 µM [falling, partial curve]
30 | CCc1c(-c2ccccc2)nc2ccccc2c1C(=O)NCc1ccc(C)cc1 | 10 µM [falling, partial curve]
31 | CCOc1ccc(C(=O)N2CCC(c3noc(-c4ccc(S(=O)(=O)N5CCCC5)cc4)n3)CC2)cc1 | 3.98 µM [falling, full curve, poor fit]
32 | CCC(=O)N1CCc2cc(S(=O)(=O)Nc3ccc4c(c3)OCCO4)ccc21 | 15.8 µM [falling, partial curve]
33 | CCN(C(=O)COC(=O)c1cccnc1SC)C1CCS(=O)(=O)C1 (configuration not stated) | 25.1 µM [falling, partial curve]
34 | Cc1cc2c(cc1S(=O)(=O)CCC(=O)NCCc1ccccc1)OCC(=O)N2 | 12.6 µM [falling, partial curve]
35 | Cc1ccc(NC(=O)CN2CCSc3ccc(S(=O)(=O)N4CCCC4)cc32)cc1C | 1.26 µM [falling, partial curve]
36 | COc1cc(OC)c(NS(=O)(=O)c2cc(-c3cnc(C4CC4)o3)ccc2C)cc1Cl | 39.8 µM [falling, partial curve]
37 | Cc1ccccc1CSc1ncc(CO)n1Cc1ccc(F)cc1 | 20 µM [falling, partial curve]
38 | COc1ccc(-c2cn3cccnc3n2)cc1NC(=O)c1cc(C)cc(C)c1 | 39.8 µM [falling, single point]
39 | Cc1cc(Cl)ccc1OCC(=O)N(Cc1ccco1)Cc1ccco1 | 39.8 µM [falling, partial curve]
40 | Cc1ccccc1Cc1c(C)nc2nc(SCC(=O)NCc3ccco3)nn2c1C | 12.6 µM [falling, partial curve]
41 | Cc1ccc(-n2ncc(C(=O)N3CCN(c4ccc(Cl)cc4)CC3)c2C2CCN(C(=O)OC(C)(C)C)CC2)c(C)c1 | 25.1 µM [falling, single point]
42 | CCOC(=O)c1ccc(NC(=O)c2ccc(=O)n(Cc3cccc(C)c3)c2)cc1 | 25.1 µM [falling, partial curve]

Row | SMILES | AC50
43 | O=C(NCCOCCn1c(=O)oc2ccccc21)Nc1ccc(F)cc1 | 25.1 µM [falling, partial curve]
44 | CC(C)N(Cc1ccccc1)C(=O)CCS(=O)(=O)c1ccc2c(c1)oc(=O)n2C | 25.1 µM [falling, single point]
45 | Cc1cc(/N=C/C=C2\N(C)c3ccccc3C2(C)C)n(CCC#N)n1 | 25.1 µM [falling, single point]
46 | Cc1ccc(Cn2c(C)c(CNCCCc3ccccc3)c(C(=O)O)c2C)cc1 | 25.1 µM [falling, single point]
47 | CCCCNC(=O)CSc1nnc(C)c2c(C)n(-c3ccccc3)nc12 | 2.51 µM [falling, full curve]
48 | COc1ccc2c(c1)c1ncnc(N3CCN(Cc4ccc5c(c4)OCO5)CC3)c1n2C | 10 µM [falling, partial curve]
49 | CCC1CN(C(=O)N2CCC(C(=O)NCc3ccccc3C)CC2)c2ccccc2O1 (configuration not stated) | 12.6 µM [falling, partial curve]
50 | Cc1ccc(-c2noc(CNC(=O)c3ccccc3)n2)cc1 | 3.16 µM [rising, full curve, poor fit]
51 | CC(C)OCCCNc1ncnc2c1[nH]c1ccccc12 | 15.8 µM [falling, partial curve]
52 | Cc1ccc(-c2cc3c(n2-c2ccc(C)cc2)CC(C)(C)CC3=O)cc1 | 2 µM [falling, full curve, poor fit]
53 | Cc1cc(=O)n2[nH]c(C)c(-c3ccccc3)c2n1 | 25.1 µM [falling, partial curve]
54 | Cc1ccc(C2=NN(CC(=O)NCCN(CC(C)C)CC(C)C)C(=O)CC2)cc1 | 2 µM [falling, partial curve]
55 | CC(C)NC(=O)C1CCN(c2nc3ccccc3nc2C(F)(F)F)CC1 | 2 µM [rising, partial curve]
56 | Cn1cc(/C(Cc2ccccc2)=N\O)c2ccccc21 | 0.316 µM [rising, full curve]
57 | Cc1cccc(N(C)C(=O)CCNS(=O)(=O)c2ccc3c(c2)CCN3C(=O)C2CC2)c1 | 0.0501 µM [falling, full curve, poor fit]
58 | Cn1ncc2c(Nc3cccc(F)c3)ncnc21 | 25.1 µM [rising, partial curve]
59 | COC(=O)CCn1cnc2onc(-c3cc(F)cc(F)c3)c2c1=O | 6.31 µM [falling, partial curve]
60 | CC(C)Sc1ncc(Cl)c(C(=O)Nc2ccc(S(=O)(=O)N(C)c3ccccc3)cc2)n1 | 20 µM [falling, single point]
61 | O=C(CN1CCC(n2nnc3cc(F)ccc32)CC1)Nc1ccc2c(c1)CCC2 | 25.1 µM [falling, single point]
62 | O=C(Nc1c(C(=O)Nc2ccccc2F)oc2ccccc12)c1cc2ccccc2o1 | 0.158 µM [falling, partial curve]
